Reference: paper PMC10105949
These are yes or no findings as the source states them, for the method shown. Binding seen in cells or lysates may run through a third protein. Some entries that bind do so weakly or less than the wild type. Sequences can lack the tags named with a protein.

Columns and labels:
Flag-SIAH1 = biological target: T1, Flag-SIAH1 (UniProt Q8IUQ4); assay: co-IP; Flag-SIAH1 transfected into A549/DDP cells; RIPA lysates; IP of Flag-SIAH1 or of HMGCR (normal IgG as control) with protein A/G PLUS-Agarose beads, 4 h at 4 °C; Western blot against HMGCR and SIAH1
T1 sequence: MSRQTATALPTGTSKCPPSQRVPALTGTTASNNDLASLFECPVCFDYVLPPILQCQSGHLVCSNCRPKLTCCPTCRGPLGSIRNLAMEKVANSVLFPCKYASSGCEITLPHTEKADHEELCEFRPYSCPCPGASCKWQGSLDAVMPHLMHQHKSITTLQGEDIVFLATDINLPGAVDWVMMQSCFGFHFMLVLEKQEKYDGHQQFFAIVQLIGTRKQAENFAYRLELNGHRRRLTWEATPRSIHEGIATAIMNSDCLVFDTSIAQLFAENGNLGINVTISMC

[1] = biological target: T2, Hydroxy-3-methylglutaryl coenzyme A reductase (HMGCR) (human (endogenous in A549/DDP)) (UniProt P04035); assay: as above
T2 sequence: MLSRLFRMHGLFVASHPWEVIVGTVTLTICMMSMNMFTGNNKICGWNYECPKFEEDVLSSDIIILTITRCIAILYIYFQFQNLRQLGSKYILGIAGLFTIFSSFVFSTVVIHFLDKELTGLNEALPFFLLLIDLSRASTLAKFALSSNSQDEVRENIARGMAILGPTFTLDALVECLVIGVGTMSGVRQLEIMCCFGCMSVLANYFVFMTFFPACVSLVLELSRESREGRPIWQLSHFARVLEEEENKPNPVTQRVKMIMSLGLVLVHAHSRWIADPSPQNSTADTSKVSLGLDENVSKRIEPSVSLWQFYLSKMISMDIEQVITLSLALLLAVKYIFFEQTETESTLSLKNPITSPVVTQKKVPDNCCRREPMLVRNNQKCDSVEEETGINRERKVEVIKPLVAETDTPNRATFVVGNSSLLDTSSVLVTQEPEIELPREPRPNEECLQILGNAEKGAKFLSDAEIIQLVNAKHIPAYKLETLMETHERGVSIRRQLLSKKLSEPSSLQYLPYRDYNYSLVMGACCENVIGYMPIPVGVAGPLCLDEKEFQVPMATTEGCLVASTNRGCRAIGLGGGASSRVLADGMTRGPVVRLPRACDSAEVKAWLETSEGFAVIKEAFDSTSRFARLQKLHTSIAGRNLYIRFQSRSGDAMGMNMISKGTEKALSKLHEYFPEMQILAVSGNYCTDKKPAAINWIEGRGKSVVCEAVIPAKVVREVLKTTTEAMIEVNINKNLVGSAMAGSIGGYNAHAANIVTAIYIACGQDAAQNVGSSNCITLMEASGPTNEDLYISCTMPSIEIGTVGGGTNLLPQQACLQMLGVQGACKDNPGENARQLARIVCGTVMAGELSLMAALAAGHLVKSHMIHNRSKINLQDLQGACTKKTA

Binder | binding (Flag-SIAH1) | binding [1]
Hydroxy-3-methylglutaryl coenzyme A reductase (HMGCR) (enzyme, UniProt P04035 1-888) MLSRLFRMHGLFVASHPWEVIVGTVTLTICMMSMNMFTGNNKICGWNYECPKFEEDVLSSDIIILTITRCIAILYIYFQFQNLRQLGSKYILGIAGLFTIFSSFVFSTVVIHFLDKELTGLNEALPFFLLLIDLSRASTLAKFALSSNSQDEVRENIARGMAILGPTFTLDALVECLVIGVGTMSGVRQLEIMCCFGCMSVLANYFVFMTFFPACVSLVLELSRESREGRPIWQLSHFARVLEEEENKPNPVTQRVKMIMSLGLVLVHAHSRWIADPSPQNSTADTSKVSLGLDENVSKRIEPSVSLWQFYLSKMISMDIEQVITLSLALLLAVKYIFFEQTETESTLSLKNPITSPVVTQKKVPDNCCRREPMLVRNNQKCDSVEEETGINRERKVEVIKPLVAETDTPNRATFVVGNSSLLDTSSVLVTQEPEIELPREPRPNEECLQILGNAEKGAKFLSDAEIIQLVNAKHIPAYKLETLMETHERGVSIRRQLLSKKLSEPSSLQYLPYRDYNYSLVMGACCENVIGYMPIPVGVAGPLCLDEKEFQVPMATTEGCLVASTNRGCRAIGLGGGASSRVLADGMTRGPVVRLPRACDSAEVKAWLETSEGFAVIKEAFDSTSRFARLQKLHTSIAGRNLYIRFQSRSGDAMGMNMISKGTEKALSKLHEYFPEMQILAVSGNYCTDKKPAAINWIEGRGKSVVCEAVIPAKVVREVLKTTTEAMIEVNINKNLVGSAMAGSIGGYNAHAANIVTAIYIACGQDAAQNVGSSNCITLMEASGPTNEDLYISCTMPSIEIGTVGGGTNLLPQQACLQMLGVQGACKDNPGENARQLARIVCGTVMAGELSLMAALAAGHLVKSHMIHNRSKINLQDLQGACTKKTA | binds | –
Flag-SIAH1 (enzyme, UniProt Q8IUQ4 1-282) MSRQTATALPTGTSKCPPSQRVPALTGTTASNNDLASLFECPVCFDYVLPPILQCQSGHLVCSNCRPKLTCCPTCRGPLGSIRNLAMEKVANSVLFPCKYASSGCEITLPHTEKADHEELCEFRPYSCPCPGASCKWQGSLDAVMPHLMHQHKSITTLQGEDIVFLATDINLPGAVDWVMMQSCFGFHFMLVLEKQEKYDGHQQFFAIVQLIGTRKQAENFAYRLELNGHRRRLTWEATPRSIHEGIATAIMNSDCLVFDTSIAQLFAENGNLGINVTISMC | – | binds
